The text below walks through data of the supplement of paper PMC10849652.

By UniProt entry, the sequences of proteins in these tests, tags left out. Where a name states a change or a piece, a line headed by the entry shows the natural chain unless it says otherwise.
UniProt Q9P1Z2: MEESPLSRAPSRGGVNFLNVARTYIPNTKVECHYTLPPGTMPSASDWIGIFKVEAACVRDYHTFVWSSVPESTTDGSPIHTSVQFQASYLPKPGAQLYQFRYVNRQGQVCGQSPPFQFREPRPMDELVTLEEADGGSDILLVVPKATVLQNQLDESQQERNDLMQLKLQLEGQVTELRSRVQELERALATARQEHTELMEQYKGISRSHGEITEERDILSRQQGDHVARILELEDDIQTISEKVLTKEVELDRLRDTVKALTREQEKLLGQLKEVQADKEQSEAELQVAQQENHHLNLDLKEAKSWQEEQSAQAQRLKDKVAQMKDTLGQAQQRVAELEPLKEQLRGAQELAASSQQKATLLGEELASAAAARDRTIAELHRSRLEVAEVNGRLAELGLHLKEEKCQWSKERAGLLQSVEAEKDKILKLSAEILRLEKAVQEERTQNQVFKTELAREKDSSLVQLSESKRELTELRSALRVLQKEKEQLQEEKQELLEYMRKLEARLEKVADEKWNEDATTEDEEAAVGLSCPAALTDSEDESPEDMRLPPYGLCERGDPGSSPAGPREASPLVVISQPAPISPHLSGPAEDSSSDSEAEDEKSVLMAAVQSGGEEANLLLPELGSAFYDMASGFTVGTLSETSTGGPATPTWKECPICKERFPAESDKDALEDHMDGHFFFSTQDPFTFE
UniProt Q8IXQ3: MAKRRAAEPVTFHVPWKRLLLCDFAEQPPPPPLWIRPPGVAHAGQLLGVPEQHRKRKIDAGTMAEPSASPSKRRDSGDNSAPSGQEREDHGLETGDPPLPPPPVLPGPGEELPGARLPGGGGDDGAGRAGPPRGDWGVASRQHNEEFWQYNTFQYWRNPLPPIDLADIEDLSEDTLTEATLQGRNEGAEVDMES
UniProt Q14444, whole entry, looked up: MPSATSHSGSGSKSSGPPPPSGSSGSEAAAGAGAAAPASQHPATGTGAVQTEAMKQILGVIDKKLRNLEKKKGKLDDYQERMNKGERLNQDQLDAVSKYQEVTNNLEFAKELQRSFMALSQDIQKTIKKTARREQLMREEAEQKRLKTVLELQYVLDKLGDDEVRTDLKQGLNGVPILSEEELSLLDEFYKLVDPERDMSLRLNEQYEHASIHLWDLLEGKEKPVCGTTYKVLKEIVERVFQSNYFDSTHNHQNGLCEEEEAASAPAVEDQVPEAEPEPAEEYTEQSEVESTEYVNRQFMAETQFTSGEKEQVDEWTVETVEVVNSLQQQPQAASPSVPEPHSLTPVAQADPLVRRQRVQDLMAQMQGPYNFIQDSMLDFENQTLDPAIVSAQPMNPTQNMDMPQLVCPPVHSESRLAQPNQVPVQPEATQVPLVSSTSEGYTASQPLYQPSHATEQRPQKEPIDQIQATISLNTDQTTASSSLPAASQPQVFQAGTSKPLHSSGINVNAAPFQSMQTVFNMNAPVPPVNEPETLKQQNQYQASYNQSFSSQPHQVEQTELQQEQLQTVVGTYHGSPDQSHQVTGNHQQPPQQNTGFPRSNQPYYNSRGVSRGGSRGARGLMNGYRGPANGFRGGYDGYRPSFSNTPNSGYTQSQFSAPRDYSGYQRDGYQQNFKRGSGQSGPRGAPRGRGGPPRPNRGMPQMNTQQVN
UniProt Q9H3H3: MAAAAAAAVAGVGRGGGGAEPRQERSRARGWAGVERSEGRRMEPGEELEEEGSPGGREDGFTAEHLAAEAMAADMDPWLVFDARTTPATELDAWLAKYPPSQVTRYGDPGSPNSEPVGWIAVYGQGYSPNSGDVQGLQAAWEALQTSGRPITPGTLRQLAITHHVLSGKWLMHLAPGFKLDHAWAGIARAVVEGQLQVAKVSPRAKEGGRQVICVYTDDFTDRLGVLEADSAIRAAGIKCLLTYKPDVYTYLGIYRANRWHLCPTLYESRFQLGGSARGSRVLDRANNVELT
UniProt Q8WUQ7: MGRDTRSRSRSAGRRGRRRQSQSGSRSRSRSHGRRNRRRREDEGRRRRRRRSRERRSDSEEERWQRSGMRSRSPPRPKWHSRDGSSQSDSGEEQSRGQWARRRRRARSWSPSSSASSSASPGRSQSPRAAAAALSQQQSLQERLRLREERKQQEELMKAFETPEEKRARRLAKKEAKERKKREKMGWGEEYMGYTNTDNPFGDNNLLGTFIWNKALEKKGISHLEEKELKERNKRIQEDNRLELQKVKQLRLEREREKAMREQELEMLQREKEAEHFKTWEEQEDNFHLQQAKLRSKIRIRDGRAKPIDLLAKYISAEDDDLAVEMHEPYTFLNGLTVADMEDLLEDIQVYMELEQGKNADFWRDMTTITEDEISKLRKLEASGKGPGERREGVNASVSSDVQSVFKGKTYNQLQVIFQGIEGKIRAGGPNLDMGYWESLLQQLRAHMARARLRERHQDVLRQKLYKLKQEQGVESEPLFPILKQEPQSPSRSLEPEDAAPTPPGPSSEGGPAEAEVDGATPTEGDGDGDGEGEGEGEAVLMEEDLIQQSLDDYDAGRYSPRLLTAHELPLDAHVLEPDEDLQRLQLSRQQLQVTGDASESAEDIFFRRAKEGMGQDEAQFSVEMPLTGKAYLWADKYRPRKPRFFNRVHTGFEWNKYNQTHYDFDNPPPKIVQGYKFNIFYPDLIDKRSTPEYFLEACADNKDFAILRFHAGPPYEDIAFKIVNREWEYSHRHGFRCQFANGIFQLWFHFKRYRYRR
UniProt Q9NS00: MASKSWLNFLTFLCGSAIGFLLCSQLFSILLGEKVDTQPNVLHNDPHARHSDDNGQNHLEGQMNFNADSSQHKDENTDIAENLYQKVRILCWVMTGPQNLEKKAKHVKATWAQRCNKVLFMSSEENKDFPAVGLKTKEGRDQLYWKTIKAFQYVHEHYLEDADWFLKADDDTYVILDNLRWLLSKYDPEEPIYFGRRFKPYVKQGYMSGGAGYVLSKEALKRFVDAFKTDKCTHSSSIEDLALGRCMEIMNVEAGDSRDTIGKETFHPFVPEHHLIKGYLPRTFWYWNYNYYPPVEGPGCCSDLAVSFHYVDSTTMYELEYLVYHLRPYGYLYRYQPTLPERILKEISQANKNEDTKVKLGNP
UniProt Q96LW7: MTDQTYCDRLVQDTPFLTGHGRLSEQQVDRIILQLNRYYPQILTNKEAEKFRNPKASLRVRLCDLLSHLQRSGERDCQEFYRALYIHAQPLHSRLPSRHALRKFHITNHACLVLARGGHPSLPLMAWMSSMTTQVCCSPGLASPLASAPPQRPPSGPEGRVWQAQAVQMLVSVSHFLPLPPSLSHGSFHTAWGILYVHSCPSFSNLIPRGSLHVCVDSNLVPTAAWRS
UniProt Q9BSJ5: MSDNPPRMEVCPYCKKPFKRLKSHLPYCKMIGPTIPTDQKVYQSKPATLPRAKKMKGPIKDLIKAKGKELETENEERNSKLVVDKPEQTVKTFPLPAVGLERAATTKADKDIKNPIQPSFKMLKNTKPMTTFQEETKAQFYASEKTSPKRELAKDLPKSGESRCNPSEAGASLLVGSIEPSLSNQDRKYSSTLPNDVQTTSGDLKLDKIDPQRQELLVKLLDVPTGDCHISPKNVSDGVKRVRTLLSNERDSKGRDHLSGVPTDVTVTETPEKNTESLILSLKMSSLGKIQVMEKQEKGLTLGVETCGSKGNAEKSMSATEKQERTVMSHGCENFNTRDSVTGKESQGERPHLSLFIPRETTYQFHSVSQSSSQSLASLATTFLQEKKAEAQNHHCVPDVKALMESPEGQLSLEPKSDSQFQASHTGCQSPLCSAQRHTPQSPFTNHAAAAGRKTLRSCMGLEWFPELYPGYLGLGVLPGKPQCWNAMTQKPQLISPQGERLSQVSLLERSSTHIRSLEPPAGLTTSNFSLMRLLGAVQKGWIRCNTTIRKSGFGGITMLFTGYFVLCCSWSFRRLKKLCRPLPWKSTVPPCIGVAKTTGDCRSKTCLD
UniProt P04003: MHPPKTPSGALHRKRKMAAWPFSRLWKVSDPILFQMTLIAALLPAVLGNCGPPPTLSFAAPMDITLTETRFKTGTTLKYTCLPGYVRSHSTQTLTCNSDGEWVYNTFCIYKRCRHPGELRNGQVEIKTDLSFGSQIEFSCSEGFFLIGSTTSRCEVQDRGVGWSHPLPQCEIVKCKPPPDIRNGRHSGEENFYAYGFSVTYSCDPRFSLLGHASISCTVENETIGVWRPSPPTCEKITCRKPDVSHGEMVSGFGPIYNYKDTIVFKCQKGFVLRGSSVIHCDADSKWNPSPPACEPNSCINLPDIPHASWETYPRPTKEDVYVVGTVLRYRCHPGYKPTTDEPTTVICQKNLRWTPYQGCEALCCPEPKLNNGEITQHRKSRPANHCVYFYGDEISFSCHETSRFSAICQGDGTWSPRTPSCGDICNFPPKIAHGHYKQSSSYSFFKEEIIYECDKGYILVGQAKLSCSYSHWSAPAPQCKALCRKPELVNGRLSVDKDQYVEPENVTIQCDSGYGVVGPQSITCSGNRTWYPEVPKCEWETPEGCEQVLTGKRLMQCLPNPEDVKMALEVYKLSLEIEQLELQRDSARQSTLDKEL
UniProt Q8N999, whole entry, looked up: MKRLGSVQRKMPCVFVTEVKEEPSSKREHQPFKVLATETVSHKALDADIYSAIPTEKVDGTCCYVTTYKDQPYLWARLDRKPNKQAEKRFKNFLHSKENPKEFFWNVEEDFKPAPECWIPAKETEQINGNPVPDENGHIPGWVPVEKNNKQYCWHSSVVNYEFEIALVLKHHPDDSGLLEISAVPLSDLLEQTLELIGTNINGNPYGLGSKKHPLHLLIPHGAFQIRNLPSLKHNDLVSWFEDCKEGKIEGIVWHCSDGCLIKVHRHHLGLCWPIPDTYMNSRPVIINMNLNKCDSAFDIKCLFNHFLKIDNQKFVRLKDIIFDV
UniProt Q9Y376: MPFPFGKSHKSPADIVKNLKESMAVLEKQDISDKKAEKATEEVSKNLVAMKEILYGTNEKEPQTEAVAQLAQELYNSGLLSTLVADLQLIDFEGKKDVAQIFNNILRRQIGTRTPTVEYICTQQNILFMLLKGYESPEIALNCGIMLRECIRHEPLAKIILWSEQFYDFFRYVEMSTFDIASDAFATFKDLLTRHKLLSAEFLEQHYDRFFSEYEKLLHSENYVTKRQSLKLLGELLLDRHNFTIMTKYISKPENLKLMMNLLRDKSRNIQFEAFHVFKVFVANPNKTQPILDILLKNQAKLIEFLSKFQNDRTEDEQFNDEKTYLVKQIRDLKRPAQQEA
UniProt Q9NZ63: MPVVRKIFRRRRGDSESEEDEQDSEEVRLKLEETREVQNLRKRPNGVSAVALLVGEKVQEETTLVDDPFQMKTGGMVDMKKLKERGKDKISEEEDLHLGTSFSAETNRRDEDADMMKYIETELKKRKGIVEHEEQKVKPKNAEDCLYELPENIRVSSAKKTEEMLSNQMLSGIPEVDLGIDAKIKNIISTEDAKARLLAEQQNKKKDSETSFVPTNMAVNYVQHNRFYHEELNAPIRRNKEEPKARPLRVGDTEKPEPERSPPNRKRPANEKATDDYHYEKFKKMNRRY
UniProt Q8N6N3: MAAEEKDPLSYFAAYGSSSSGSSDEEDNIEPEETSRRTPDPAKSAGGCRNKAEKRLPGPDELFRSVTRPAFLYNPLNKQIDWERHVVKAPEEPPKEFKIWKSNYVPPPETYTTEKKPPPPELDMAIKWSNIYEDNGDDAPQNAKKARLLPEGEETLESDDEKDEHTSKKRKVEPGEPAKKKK
UniProt Q13901: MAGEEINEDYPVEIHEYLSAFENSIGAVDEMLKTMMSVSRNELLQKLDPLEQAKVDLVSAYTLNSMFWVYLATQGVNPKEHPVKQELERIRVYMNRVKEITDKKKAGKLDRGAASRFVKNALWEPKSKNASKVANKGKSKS
UniProt P10643, whole entry, looked up: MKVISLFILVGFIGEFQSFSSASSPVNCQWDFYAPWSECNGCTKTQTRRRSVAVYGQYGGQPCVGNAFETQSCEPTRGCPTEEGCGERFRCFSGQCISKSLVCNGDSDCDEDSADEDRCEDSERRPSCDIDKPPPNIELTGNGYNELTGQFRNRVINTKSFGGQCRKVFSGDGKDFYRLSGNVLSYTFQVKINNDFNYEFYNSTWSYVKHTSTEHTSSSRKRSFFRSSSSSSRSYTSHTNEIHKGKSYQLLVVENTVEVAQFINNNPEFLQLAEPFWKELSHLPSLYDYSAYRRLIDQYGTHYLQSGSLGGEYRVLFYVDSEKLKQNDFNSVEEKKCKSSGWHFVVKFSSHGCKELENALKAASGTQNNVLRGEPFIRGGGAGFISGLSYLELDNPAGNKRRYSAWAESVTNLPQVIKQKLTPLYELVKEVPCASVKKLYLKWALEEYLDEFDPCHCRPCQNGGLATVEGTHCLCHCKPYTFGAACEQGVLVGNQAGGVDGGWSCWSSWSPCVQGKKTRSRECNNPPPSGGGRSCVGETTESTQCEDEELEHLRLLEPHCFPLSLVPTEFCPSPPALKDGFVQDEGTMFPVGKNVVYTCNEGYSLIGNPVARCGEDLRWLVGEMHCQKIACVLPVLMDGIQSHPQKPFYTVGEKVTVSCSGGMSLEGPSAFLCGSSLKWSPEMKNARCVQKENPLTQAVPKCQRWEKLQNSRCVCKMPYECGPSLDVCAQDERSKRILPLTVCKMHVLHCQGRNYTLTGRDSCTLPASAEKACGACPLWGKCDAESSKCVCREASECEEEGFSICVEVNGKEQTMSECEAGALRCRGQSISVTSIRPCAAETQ

The list shows a part of the results.

Compound in this assay: Cc1ccc(NC(=O)c2ccc(CN3CC[C@H](N(C)C)C3)c(C(F)(F)F)c2)cc1Nc1nccc(-c2cncnc2)n1 [bafetinib]
As to the kind of experiment: log2 fold change, soluble protein after heating vs DMSO (PISA); higher = thermal stabilisation; K562 cells, 10 uM, 30 min; active = over 0.2 and 3.5 SD of the protein, either way, in both replicates (recomputed). In outline:
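Quantification of soluble protein used TMTpro 16plex LC-MS/MS, with channel sums equalised. Samples were the supernatant after 21,000xg for 90 min of pooled aliquots from K562 cells (2×10^6 cells/mL) treated with 10 μM compound for 30 min, heated for 3 min over 48°C-58°C, and extracted in PBS with 0.5% NP-40 at 4°C. Values, from duplicates, describe thermal stability against control samples on a log2 fold-change scale.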
C8orf76 (UniProt Q96K31): the log2 fold change was inactive: 0.01.
Then C6orf89 isoform 2 (UniProt Q6UWU4), with inactive: -0.053; and CALCOCO1 (UniProt Q9P1Z2), with inactive: 0.039; and CALU isoform 4 (UniProt O43852), with inactive: -0.033.
Consider C1GALT1C1 (UniProt Q96EU7), for which the log2 fold change was inactive: 0.005.
In the case of C9orf40 (UniProt Q8IXQ3) it was inactive: -0.144; in that of CAPRIN1 (UniProt Q14444), inactive: 0.165; in that of C11orf68 (UniProt Q9H3H3), inactive: -0.083.
Then CACTIN isoform 2 (UniProt Q8WUQ7), with inactive: -0.179.
Then C18orf32 (UniProt Q8TCD1), with inactive: -0.167; and C1GALT1 (UniProt Q9NS00), with inactive: -0.069; and CARD19 isoform 2 (UniProt Q96LW7), with inactive: -0.034.
With C17orf80 (UniProt Q9BSJ5), the log2 fold change is inactive: -0.019.
In the case of CANX isoform 2 (UniProt P27824) it was inactive: -0.035.
Then C4BPA (UniProt P04003), with inactive: 0.56; and C12orf29 (UniProt Q8N999), with inactive: -0.024.
On to CAB39 (UniProt Q9Y376), for which the log2 fold change is inactive: -0.035.
Then BTRC (UniProt Q9Y297), with inactive: -0.095; and BUB1B isoform 3 (UniProt O60566), with inactive: 0.03; and BTN2A1 (UniProt Q7KYR7), with inactive: 0.1.
In the case of C12orf73 (UniProt Q69YU5) it was inactive: -0.125.
For the target C9orf78 (UniProt Q9NZ63), the log2 fold change was inactive: -0.084.
Then C1orf52 (UniProt Q8N6N3), with inactive: -0.053.
In the case of CAD (UniProt P27708) it was inactive: 0.011.
Then CA13 (UniProt Q8N1Q1), with inactive: -0.05; and CALB1 (UniProt P05937), with inactive: -0.076.
For the target C1D (UniProt Q13901), the log2 fold change was inactive: -0.026.
In the case of C16orf58 (UniProt Q96GQ5) it was inactive: -0.112.
In the case of C9orf72 (UniProt Q96LT7) it was inactive: 0.029; in that of C19orf53 (UniProt Q9UNZ5), inactive: 0.271.
Then CAPZB isoform 2 (UniProt P47756), with inactive: -0.079; and C7 (UniProt P10643), with inactive: -0.167; and C18orf25 isoform 2 (UniProt Q96B23), with inactive: -0.031.
For CARD8 isoform 5 (UniProt Q9Y2G2), the log2 fold change was inactive: -0.14.
